Among the data in publication PMC11224471 are binding values, retold here.

The chains behind the UniProt entries cited, without tags or fusion partners.
UniProt Q9ESE1: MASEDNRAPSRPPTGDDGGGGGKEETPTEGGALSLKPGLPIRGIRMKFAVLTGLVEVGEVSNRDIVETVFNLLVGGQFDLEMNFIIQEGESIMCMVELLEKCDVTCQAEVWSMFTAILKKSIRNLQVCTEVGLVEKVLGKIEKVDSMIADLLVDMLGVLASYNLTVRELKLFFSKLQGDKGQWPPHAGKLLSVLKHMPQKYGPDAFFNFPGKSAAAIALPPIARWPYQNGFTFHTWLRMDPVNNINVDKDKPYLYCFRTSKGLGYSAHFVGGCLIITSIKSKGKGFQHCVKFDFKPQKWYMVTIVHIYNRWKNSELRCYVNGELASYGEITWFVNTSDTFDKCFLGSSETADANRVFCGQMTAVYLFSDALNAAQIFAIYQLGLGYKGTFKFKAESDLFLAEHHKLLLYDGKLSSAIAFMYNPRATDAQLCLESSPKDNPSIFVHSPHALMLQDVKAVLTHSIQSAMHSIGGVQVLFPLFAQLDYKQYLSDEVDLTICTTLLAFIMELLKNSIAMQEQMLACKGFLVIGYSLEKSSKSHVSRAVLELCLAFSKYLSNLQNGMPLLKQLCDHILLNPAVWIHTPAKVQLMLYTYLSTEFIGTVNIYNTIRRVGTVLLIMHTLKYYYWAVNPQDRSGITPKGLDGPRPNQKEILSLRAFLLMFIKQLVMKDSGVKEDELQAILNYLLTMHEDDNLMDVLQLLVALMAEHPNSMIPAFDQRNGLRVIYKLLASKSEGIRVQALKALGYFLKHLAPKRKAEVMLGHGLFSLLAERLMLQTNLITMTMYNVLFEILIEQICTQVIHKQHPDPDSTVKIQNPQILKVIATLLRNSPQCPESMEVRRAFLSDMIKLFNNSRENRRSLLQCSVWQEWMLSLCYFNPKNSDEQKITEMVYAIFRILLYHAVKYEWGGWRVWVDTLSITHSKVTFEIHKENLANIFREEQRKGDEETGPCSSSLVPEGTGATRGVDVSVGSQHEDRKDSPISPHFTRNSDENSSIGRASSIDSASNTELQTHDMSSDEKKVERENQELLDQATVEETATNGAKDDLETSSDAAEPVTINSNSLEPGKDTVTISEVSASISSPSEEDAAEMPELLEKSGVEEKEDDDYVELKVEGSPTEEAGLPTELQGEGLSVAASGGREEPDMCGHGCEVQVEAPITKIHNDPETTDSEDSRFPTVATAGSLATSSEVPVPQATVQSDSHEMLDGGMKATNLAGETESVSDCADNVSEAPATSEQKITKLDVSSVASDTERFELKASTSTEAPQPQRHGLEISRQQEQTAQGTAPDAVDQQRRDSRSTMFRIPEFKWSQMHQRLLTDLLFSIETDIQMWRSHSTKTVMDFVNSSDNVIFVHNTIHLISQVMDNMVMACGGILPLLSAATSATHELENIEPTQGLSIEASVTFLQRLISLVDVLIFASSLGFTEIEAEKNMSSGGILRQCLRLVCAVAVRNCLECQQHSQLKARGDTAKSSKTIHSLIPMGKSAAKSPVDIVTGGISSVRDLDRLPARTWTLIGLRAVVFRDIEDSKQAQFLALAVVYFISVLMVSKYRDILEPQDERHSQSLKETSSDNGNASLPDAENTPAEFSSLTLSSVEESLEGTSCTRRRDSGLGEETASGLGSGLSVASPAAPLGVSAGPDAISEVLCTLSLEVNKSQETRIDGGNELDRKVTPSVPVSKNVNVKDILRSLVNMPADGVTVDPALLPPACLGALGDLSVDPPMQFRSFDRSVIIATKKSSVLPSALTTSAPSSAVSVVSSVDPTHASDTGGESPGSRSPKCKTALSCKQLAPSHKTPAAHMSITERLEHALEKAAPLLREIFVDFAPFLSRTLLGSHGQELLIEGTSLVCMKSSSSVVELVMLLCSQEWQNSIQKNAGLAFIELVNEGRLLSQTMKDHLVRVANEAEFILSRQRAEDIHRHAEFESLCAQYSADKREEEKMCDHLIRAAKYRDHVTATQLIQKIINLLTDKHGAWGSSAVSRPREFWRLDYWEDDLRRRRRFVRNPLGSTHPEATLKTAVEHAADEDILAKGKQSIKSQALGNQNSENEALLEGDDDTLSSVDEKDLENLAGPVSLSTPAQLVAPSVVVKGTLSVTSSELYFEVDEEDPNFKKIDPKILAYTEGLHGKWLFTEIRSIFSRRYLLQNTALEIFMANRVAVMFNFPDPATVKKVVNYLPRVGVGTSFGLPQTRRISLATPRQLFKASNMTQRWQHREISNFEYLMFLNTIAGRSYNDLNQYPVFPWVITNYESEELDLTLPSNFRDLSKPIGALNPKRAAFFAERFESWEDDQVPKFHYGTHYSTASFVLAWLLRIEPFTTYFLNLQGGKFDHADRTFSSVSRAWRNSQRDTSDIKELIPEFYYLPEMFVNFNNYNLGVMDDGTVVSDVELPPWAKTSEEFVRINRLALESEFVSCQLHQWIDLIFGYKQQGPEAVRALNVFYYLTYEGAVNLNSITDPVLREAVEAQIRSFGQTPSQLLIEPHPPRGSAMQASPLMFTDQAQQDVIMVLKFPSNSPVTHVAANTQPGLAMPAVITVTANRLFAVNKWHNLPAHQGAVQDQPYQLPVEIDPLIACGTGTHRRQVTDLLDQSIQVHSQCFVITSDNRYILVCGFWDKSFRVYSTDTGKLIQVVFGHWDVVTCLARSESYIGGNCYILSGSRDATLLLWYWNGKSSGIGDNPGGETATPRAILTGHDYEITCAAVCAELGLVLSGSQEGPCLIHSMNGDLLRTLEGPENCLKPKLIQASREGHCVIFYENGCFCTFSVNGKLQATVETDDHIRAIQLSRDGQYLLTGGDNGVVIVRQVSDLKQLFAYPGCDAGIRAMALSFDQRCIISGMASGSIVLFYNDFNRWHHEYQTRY

The experiment has as its target T1, TGFβ receptor II subunit (TGFβRII), murine (mouse (endogenous in splenic B cells)) (UniProt Q62312).
T1 sequence: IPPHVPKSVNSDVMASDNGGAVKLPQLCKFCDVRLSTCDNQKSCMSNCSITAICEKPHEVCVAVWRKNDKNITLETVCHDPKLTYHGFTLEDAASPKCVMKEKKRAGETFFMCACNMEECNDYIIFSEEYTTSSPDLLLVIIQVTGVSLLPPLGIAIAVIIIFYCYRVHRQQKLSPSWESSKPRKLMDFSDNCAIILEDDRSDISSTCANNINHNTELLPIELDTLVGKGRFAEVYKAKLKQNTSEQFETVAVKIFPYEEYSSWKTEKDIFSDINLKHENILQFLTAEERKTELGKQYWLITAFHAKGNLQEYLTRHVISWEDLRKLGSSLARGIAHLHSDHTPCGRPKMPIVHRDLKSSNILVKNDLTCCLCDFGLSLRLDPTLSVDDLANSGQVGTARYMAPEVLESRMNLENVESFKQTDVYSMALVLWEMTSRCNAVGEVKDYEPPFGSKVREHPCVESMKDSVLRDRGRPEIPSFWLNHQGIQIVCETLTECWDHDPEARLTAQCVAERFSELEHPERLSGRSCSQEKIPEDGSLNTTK
As to the kind of experiment: co-IP; endogenous proteins from B cells of Lrba+/+ mice; immunoprecipitation with anti-Lrba or anti-TGFβRII, detection by immunoblot; Lrba-/- B cells as negative control. A general note: Immunoblotting shows a protein as a band on a membrane.

These are yes or no findings as the source states them, for the method shown. Binding seen in cells or lysates may run through a third protein. Some binding calls cover weakened binding; strength is not graded here.

Take “Lipopolysaccharide (LPS)-responsive beige-like anchor (Lrba), murine (from UniProt Q9ESE1 1-2856)”: the binding entry was “binds weakly”.
